PubChem BioAssay AID1159584, Peter MacCallum Cancer Centre | 2016
The whole screen tested about 18,000 reagents; below is a part drawn at random. Further read-outs or replicates are left out here. Not stated in the record: the amount of reagent, the time to read-out.

- Aim: 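Knock-downs that harm CDH1-null cells more than parental MCF10A cells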 (primary screen)
- Cell system: human MCF10A breast epithelial cells, parental and CDH1-null
- Reagent: siRNA against human genes
- Read-out: 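Cell viability by CellTiter-Glo ATP luminescence, each line scaled to the mean of mock wells across plates, then CDH1-null over parental ratio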
- Reading the numbers: CDH1-null / parental viability ratio: higher = CDH1-null cells survive relatively better than parental

PTGDR2 (prostaglandin D2 receptor 2)
- CDH1-null / parental viability ratio: 0.75

TNFRSF8 (TNF receptor superfamily member 8)
- CDH1-null / parental viability ratio: 0.62

SELENBP1 (selenium binding protein 1)
- CDH1-null / parental viability ratio: 1.37

CCDC81 (coiled-coil domain containing 81)
- CDH1-null / parental viability ratio: 0.77

BMP1 (bone morphogenetic protein 1)
- CDH1-null / parental viability ratio: 1.23

SCAMP1
- CDH1-null / parental viability ratio: 1.26

ARAP1 (ArfGAP with RhoGAP domain, ankyrin repeat and PH domain 1)
- CDH1-null / parental viability ratio: 1.3

ITLN1 (intelectin 1)
- CDH1-null / parental viability ratio: 1.1

AFF2 (ALF transcription elongation factor 2)
- CDH1-null / parental viability ratio: 1.04

USE1 (unconventional SNARE in the ER 1)
- CDH1-null / parental viability ratio: 0.92

LATS1 (large tumor suppressor kinase 1)
- CDH1-null / parental viability ratio: 1

CTBS (chitobiase)
- CDH1-null / parental viability ratio: 0.85

MTMR2 (myotubularin related protein 2)
- CDH1-null / parental viability ratio: 1.53

RBMY1F (RNA binding motif protein Y-linked family 1 member F)
- CDH1-null / parental viability ratio: 1.27

CT47A6 (cancer/testis antigen family 47 member A6)
- CDH1-null / parental viability ratio: 0.83

MDFIC (MyoD family inhibitor domain containing)
- CDH1-null / parental viability ratio: 1.34

TMEM51 (transmembrane protein 51)
- CDH1-null / parental viability ratio: 1.62

UBE3B (ubiquitin protein ligase E3B)
- CDH1-null / parental viability ratio: 1.17

PDLIM3 (PDZ and LIM domain 3)
- CDH1-null / parental viability ratio: 1.21

DORIP1 (dopamine receptor interacting protein 1)
- CDH1-null / parental viability ratio: 0.92

ANKRD46 (ankyrin repeat domain 46)
- CDH1-null / parental viability ratio: 0.8

FLG (filaggrin)
- CDH1-null / parental viability ratio: 1.03

ITM2C (integral membrane protein 2C)
- CDH1-null / parental viability ratio: 1.08

EIF2B5 (eukaryotic translation initiation factor 2B subunit epsilon)
- CDH1-null / parental viability ratio: 0.88

No new results follow: an excerpt of the list.
ARAP1 (ArfGAP with RhoGAP domain, ankyrin repeat and PH domain 1)
- CDH1-null / parental viability ratio: 1.3

ITLN1 (intelectin 1)
- CDH1-null / parental viability ratio: 1.1

AFF2 (ALF transcription elongation factor 2)
- CDH1-null / parental viability ratio: 1.04

USE1 (unconventional SNARE in the ER 1)
- CDH1-null / parental viability ratio: 0.92
